From paper doi:10.1101/2024.01.24.577082
Results are given in words; binding and its absence hold for the method and conditions named. Some entries that bind do so weakly or less than the wild type.

T1: PHOSPHATE-INDUCED 1 (Arabidopsis thaliana) (UniProt Q9C6E4)
T1 sequence: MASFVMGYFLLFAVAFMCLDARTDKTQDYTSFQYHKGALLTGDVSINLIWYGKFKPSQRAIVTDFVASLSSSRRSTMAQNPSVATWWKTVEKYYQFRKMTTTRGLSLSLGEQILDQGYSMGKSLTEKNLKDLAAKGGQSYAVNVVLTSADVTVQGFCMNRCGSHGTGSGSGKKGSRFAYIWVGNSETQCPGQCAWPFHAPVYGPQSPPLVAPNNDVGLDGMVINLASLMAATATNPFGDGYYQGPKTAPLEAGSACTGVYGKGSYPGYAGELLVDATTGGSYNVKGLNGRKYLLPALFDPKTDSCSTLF


Biological target: T1, PHOSPHATE-INDUCED 1 (Arabidopsis thaliana)
Assay: two-hybrid

binding | Binder
binds | CESA1 (enzyme, UniProt O48946 1-1081) MEASAGLVAGSYRRNELVRIRHESDGGTKPLKNMNGQICQICGDDVGLAETGDVFVACNECAFPVCRPCYEYERKDGTQCCPQCKTRFRRHRGSPRVEGDEDEDDVDDIENEFNYAQGANKARHQRHGEEFSSSSRHESQPIPLLTHGHTVSGEIRTPDTQSVRTTSGPLGPSDRNAISSPYIDPRQPVPVRIVDPSKDLNSYGLGNVDWKERVEGWKLKQEKNMLQMTGKYHEGKGGEIEGTGSNGEELQMADDTRLPMSRVVPIPSSRLTPYRVVIILRLIILCFFLQYRTTHPVKNAYPLWLTSVICEIWFAFSWLLDQFPKWYPINRETYLDRLAIRYDRDGEPSQLVPVDVFVSTVDPLKEPPLVTANTVLSILSVDYPVDKVACYVSDDGSAMLTFESLSETAEFAKKWVPFCKKFNIEPRAPEFYFAQKIDYLKDKIQPSFVKERRAMKREYEEFKVRINALVAKAQKIPEEGWTMQDGTPWPGNNTRDHPGMIQVFLGHSGGLDTDGNELPRLIYVSREKRPGFQHHKKAGAMNALIRVSAVLTNGAYLLNVDCDHYFNNSKAIKEAMCFMMDPAIGKKCCYVQFPQRFDGIDLHDRYANRNIVFFDINMKGLDGIQGPVYVGTGCCFNRQALYGYDPVLTEEDLEPNIIVKSCCGSRKKGKSSKKYNYEKRRGINRSDSNAPLFNMEDIDEGFEGYDDERSILMSQRSVEKRFGQSPVFIAATFMEQGGIPPTTNPATLLKEAIHVISCGYEDKTEWGKEIGWIYGSVTEDILTGFKMHARGWISIYCNPPRPAFKGSAPINLSDRLNQVLRWALGSIEILLSRHCPIWYGYHGRLRLLERIAYINTIVYPITSIPLIAYCILPAFCLITDRFIIPEISNYASIWFILLFISIAVTGILELRWSGVSIEDWWRNEQFWVIGGTSAHLFAVFQGLLKVLAGIDTNFTVTSKATDEDGDFAELYIFKWTALLIPPTTVLLVNLIGIVAGVSYAVNSGYQSWGPLFGKLFFALWVIAHLYPFLKGLLGRQNRTPTIVIVWSVLLASIFSLLWVRINPFVDANPNANNFNGKGGVF
binds | CESA2 (enzyme, UniProt O48947 1-1084) MNTGGRLIAGSHNRNEFVLINADESARIRSVQELSGQTCQICGDEIELTVSSELFVACNECAFPVCRPCYEYERREGNQACPQCKTRYKRIKGSPRVDGDDEEEEDIDDLEYEFDHGMDPEHAAEAALSSRLNTGRGGLDSAPPGSQIPLLTYCDEDADMYSDRHALIVPPSTGYGNRVYPAPFTDSSAPPQARSMVPQKDIAEYGYGSVAWKDRMEVWKRRQGEKLQVIKHEGGNNGRGSNDDDELDDPDMPMMDEGRQPLSRKLPIRSSRINPYRMLILCRLAILGLFFHYRILHPVNDAYGLWLTSVICEIWFAVSWILDQFPKWYPIERETYLDRLSLRYEKEGKPSGLAPVDVFVSTVDPLKEPPLITANTVLSILAVDYPVDKVACYVSDDGAAMLTFEALSDTAEFARKWVPFCKKFNIEPRAPEWYFSQKMDYLKNKVHPAFVRERRAMKRDYEEFKVKINALVATAQKVPEEGWTMQDGTPWPGNNVRDHPGMIQVFLGHSGVRDTDGNELPRLVYVSREKRPGFDHHKKAGAMNSLIRVSAVLSNAPYLLNVDCDHYINNSKAIRESMCFMMDPQSGKKVCYVQFPQRFDGIDRHDRYSNRNVVFFDINMKGLDGIQGPIYVGTGCVFRRQALYGFDAPKKKKPPGKTCNCWPKWCCLCCGLRKKSKTKAKDKKTNTKETSKQIHALENVDEGVIVPVSNVEKRSEATQLKLEKKFGQSPVFVASAVLQNGGVPRNASPACLLREAIQVISCGYEDKTEWGKEIGWIYGSVTEDILTGFKMHCHGWRSVYCMPKRAAFKGSAPINLSDRLHQVLRWALGSVEIFLSRHCPIWYGYGGGLKWLERFSYINSVVYPWTSLPLIVYCSLPAVCLLTGKFIVPEISNYAGILFMLMFISIAVTGILEMQWGGVGIDDWWRNEQFWVIGGASSHLFALFQGLLKVLAGVNTNFTVTSKAADDGAFSELYIFKWTTLLIPPTTLLIINIIGVIVGVSDAISNGYDSWGPLFGRLFFALWVIVHLYPFLKGMLGKQDKMPTIIVVWSILLASILTLLWVRVNPFVAKGGPVLEICGLNCGN
binds | CESA4 (enzyme, UniProt Q84JA6 1-1049) MEPNTMASFDDEHRHSSFSAKICKVCGDEVKDDDNGQTFVACHVCVYPVCKPCYEYERSNGNKCCPQCNTLYKRHKGSPKIAGDEENNGPDDSDDELNIKYRQDGSSIHQNFAYGSENGDYNSKQQWRPNGRAFSSTGSVLGKDFEAERDGYTDAEWKERVDKWKARQEKRGLVTKGEQTNEDKEDDEEEYLDAEARQPLWRKVPISSSKISPYRIVIVLRLVILVFFFRFRILTPAKDAYPLWLISVICEIWFALSWILDQFPKWFPINRETYLDRLSMRFERDGEKNKLAPVDVFVSTVDPLKEPPIITANTILSILAVDYPVNKVSCYVSDDGASMLLFDTLSETSEFARRWVPFCKKYNVEPRAPEFYFSEKIDYLKDKVQTTFVKDRRAMKREYEEFKVRINALVAKAQKKPEEGWVMQDGTPWPGNNTRDHPGMIQVYLGKEGAFDIDGNELPRLVYVSREKRPGYAHHKKAGAMNAMVRVSAVLTNAPFMLNLDCDHYINNSKAIRESMCFLMDPQLGKKLCYVQFPQRFDGIDLNDRYANRNIVFFDINMRGLDGIQGPVYVGTGCVFNRPALYGYEPPVSEKRKKMTCDCWPSWICCCCGGGNRNHKSDSSKKKSGIKSLFSKLKKKTKKKSDDKTMSSYSRKRSSTEAIFDLEDIEEGLEGYDELEKSSLMSQKNFEKRFGMSPVFIASTLMENGGLPEATNTSSLIKEAIHVISCGYEEKTEWGKEIGWIYGSVTEDILTGFRMHCRGWKSVYCMPKRPAFKGSAPINLSDRLHQVLRWALGSVEIFFSRHCPLWYAWGGKLKILERLAYINTIVYPFTSIPLLAYCTIPAVCLLTGKFIIPTINNFASIWFLALFLSIIATAILELRWSGVSINDLWRNEQFWVIGGVSAHLFAVFQGLLKVLFGVDTNFTVTSKGASDEADEFGDLYLFKWTTLLIPPTTLIILNMVGVVAGVSDAINNGYGSWGPLFGKLFFAFWVIVHLYPFLKGLMGRQNRTPTIVVLWSILLASIFSLVWVRIDPFLPKQTGPLLKQCGVDC
binds | CESA3 (enzyme, UniProt Q941L0 1-1065) MESEGETAGKPMKNIVPQTCQICSDNVGKTVDGDRFVACDICSFPVCRPCYEYERKDGNQSCPQCKTRYKRLKGSPAIPGDKDEDGLADEGTVEFNYPQKEKISERMLGWHLTRGKGEEMGEPQYDKEVSHNHLPRLTSRQDTSGEFSAASPERLSVSSTIAGGKRLPYSSDVNQSPNRRIVDPVGLGNVAWKERVDGWKMKQEKNTGPVSTQAASERGGVDIDASTDILADEALLNDEARQPLSRKVSIPSSRINPYRMVIMLRLVILCLFLHYRITNPVPNAFALWLVSVICEIWFALSWILDQFPKWFPVNRETYLDRLALRYDREGEPSQLAAVDIFVSTVDPLKEPPLVTANTVLSILAVDYPVDKVSCYVSDDGAAMLSFESLAETSEFARKWVPFCKKYSIEPRAPEWYFAAKIDYLKDKVQTSFVKDRRAMKREYEEFKIRINALVSKALKCPEEGWVMQDGTPWPGNNTRDHPGMIQVFLGQNGGLDAEGNELPRLVYVSREKRPGFQHHKKAGAMNALVRVSAVLTNGPFILNLDCDHYINNSKALREAMCFLMDPNLGKQVCYVQFPQRFDGIDKNDRYANRNTVFFDINLRGLDGIQGPVYVGTGCVFNRTALYGYEPPIKVKHKKPSLLSKLCGGSRKKNSKAKKESDKKKSGRHTDSTVPVFNLDDIEEGVEGAGFDDEKALLMSQMSLEKRFGQSAVFVASTLMENGGVPPSATPENLLKEAIHVISCGYEDKSDWGMEIGWIYGSVTEDILTGFKMHARGWRSIYCMPKLPAFKGSAPINLSDRLNQVLRWALGSVEILFSRHCPIWYGYNGRLKFLERFAYVNTTIYPITSIPLLMYCTLPAVCLFTNQFIIPQISNIASIWFLSLFLSIFATGILEMRWSGVGIDEWWRNEQFWVIGGVSAHLFAVFQGILKVLAGIDTNFTVTSKASDEDGDFAELYLFKWTTLLIPPTTLLIVNLVGVVAGVSYAINSGYQSWGPLFGKLFFAFWVIVHLYPFLKGLMGRQNRTPTIVVVWSVLLASIFSLLWVRIDPFTSRVTGPDILECGINC
